Assay results: the supplement of paper PMC10849652
The other results are listed elsewhere or left out.

The chains behind the UniProt entries cited, without tags or fusion partners. Where a name states a change or a piece, a line headed by the entry shows the natural chain unless it says otherwise.
UniProt P20618: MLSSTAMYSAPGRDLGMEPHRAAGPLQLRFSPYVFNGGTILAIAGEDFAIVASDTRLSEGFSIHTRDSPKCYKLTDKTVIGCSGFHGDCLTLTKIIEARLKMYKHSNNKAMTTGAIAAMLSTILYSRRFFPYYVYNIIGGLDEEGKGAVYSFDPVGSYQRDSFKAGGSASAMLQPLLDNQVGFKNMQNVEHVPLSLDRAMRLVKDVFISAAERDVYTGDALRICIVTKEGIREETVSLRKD
UniProt Q15257: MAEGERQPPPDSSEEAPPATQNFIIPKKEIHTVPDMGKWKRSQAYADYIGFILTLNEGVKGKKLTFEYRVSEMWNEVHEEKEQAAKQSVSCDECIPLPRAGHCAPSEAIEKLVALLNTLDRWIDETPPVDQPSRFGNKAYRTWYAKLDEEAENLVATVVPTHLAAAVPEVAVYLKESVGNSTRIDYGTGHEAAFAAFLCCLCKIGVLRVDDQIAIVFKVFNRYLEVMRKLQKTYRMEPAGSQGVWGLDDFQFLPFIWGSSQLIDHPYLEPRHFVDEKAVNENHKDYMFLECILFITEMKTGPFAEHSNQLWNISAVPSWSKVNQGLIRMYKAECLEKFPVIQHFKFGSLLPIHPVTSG
UniProt P35998: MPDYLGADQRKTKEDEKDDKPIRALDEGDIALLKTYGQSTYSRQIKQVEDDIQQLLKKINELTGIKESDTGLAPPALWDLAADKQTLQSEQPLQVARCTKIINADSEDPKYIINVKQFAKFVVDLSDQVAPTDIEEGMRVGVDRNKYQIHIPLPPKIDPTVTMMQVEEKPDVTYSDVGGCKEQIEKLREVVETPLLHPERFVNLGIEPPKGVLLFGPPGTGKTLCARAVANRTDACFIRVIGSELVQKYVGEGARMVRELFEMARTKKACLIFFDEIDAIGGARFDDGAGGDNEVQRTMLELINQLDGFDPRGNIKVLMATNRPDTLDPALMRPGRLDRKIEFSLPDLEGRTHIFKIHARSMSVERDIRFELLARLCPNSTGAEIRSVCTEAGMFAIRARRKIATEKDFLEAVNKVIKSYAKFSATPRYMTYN
UniProt P26599: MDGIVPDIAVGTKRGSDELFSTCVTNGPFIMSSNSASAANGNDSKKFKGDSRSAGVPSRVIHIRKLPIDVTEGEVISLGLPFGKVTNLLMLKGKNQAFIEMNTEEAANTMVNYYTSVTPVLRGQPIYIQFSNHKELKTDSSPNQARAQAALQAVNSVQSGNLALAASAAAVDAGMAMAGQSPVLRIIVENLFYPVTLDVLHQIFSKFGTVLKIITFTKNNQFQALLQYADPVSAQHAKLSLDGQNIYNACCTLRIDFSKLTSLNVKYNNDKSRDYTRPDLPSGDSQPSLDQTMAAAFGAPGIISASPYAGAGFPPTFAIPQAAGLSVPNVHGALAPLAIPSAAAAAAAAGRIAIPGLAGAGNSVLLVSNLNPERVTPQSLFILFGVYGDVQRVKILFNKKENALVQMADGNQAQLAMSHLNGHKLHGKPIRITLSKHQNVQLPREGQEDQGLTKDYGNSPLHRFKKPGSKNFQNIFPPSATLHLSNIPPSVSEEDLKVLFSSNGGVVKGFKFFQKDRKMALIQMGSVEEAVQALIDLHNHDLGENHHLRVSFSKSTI
UniProt Q9BT73: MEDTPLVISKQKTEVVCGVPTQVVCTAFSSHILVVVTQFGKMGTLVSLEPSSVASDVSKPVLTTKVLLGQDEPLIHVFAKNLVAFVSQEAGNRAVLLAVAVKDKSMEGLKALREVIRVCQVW
UniProt Q9Y3E5: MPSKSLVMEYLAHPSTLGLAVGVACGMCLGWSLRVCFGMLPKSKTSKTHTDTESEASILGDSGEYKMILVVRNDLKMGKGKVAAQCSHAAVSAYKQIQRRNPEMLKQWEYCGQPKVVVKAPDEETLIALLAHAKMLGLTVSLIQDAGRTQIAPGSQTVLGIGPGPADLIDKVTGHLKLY
UniProt Q92932: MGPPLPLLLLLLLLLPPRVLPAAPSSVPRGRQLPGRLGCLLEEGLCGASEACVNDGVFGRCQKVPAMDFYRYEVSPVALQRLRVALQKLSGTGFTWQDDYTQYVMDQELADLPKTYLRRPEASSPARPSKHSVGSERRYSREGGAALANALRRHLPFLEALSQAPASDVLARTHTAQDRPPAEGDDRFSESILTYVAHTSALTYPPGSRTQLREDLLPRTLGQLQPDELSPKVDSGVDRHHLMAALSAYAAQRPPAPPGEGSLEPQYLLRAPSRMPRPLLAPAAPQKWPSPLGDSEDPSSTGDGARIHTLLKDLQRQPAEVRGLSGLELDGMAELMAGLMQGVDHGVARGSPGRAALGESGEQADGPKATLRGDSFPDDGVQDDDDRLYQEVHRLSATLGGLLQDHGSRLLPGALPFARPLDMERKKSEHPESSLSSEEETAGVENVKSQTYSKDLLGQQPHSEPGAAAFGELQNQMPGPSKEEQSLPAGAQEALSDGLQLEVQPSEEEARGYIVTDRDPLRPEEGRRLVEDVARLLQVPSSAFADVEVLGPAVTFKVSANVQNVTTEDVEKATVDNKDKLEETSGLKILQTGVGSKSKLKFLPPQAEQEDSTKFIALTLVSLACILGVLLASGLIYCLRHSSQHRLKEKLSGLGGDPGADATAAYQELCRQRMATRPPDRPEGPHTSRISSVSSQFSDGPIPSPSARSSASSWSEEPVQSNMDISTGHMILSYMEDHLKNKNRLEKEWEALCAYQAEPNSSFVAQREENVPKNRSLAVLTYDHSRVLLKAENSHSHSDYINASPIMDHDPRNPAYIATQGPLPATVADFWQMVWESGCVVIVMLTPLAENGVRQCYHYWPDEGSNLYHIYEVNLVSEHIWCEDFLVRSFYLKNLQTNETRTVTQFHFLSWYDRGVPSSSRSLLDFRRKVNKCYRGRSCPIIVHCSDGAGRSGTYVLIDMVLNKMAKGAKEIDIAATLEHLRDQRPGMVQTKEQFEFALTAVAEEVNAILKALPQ
UniProt Q9UNM6: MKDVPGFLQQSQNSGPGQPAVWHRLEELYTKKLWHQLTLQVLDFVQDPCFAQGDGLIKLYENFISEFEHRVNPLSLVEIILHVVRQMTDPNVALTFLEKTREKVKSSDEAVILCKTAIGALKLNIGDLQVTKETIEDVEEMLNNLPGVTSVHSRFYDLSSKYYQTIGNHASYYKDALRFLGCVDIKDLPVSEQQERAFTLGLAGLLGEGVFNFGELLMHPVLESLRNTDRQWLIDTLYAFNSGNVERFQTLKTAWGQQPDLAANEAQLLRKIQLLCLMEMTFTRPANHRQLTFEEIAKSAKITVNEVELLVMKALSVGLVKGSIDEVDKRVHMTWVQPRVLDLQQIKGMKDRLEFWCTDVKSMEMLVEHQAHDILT
UniProt Q8N8N7: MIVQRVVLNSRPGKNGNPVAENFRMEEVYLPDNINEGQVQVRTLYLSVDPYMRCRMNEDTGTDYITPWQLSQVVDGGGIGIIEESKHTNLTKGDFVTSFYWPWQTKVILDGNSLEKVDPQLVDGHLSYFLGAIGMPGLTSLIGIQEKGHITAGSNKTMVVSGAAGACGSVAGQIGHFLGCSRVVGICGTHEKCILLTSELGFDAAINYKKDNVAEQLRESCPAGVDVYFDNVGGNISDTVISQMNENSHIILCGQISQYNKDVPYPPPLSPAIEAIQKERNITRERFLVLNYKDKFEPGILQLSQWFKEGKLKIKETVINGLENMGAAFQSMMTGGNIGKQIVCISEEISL
UniProt Q86TP1: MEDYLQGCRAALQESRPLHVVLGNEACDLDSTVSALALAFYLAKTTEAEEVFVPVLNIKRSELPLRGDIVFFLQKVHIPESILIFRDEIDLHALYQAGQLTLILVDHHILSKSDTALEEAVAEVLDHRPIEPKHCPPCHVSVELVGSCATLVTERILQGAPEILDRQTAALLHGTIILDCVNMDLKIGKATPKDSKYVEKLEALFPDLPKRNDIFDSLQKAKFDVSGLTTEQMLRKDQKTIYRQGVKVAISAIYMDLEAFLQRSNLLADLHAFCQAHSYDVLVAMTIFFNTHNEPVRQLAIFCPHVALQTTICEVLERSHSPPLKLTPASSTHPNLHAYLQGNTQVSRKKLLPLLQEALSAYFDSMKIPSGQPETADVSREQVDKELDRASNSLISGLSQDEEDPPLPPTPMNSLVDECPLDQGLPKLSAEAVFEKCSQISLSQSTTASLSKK
UniProt P62195, whole entry, looked up: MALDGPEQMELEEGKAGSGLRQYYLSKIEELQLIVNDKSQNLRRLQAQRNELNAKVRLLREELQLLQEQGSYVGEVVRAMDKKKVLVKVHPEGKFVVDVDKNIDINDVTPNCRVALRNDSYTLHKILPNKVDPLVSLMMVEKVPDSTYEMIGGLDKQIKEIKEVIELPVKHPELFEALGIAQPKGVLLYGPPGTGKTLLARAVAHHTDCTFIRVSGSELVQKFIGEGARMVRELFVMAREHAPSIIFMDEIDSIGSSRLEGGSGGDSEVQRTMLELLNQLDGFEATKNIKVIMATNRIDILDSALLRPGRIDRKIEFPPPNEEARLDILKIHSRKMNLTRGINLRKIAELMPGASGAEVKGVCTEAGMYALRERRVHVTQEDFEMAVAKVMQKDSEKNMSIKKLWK
UniProt P28074: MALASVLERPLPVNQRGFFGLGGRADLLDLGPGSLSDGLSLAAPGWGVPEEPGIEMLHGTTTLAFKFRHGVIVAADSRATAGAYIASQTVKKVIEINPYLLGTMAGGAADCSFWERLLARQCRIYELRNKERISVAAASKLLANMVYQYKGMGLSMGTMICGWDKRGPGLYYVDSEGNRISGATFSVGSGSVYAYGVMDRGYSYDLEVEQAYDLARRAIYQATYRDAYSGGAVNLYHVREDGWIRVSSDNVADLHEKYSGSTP
UniProt P17980, whole entry, looked up: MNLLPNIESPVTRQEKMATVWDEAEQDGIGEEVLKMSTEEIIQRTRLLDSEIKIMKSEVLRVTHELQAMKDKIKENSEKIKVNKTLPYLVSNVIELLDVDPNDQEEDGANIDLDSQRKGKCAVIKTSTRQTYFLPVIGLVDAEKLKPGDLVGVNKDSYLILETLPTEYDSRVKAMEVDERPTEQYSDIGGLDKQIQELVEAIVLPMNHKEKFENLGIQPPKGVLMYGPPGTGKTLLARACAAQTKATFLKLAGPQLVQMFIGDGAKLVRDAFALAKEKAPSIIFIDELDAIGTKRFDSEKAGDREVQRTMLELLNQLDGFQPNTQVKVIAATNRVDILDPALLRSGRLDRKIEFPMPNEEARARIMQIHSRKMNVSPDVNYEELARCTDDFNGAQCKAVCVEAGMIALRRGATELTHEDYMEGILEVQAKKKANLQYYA
UniProt P06454: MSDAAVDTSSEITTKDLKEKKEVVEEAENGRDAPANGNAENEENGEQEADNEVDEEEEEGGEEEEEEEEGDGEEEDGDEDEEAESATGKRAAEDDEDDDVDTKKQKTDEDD
UniProt P43686, whole entry, looked up: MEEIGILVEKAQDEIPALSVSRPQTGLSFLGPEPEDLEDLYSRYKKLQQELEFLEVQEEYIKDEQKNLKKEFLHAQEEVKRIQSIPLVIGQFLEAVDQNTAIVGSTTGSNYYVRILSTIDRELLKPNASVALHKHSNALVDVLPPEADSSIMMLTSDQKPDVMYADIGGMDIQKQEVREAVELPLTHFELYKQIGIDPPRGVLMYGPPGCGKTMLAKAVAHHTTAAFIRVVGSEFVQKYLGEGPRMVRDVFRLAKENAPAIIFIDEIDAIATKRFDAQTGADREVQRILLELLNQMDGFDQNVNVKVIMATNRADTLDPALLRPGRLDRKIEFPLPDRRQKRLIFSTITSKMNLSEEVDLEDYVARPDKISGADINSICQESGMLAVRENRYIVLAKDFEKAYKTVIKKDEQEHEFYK
UniProt O00231, whole entry, looked up: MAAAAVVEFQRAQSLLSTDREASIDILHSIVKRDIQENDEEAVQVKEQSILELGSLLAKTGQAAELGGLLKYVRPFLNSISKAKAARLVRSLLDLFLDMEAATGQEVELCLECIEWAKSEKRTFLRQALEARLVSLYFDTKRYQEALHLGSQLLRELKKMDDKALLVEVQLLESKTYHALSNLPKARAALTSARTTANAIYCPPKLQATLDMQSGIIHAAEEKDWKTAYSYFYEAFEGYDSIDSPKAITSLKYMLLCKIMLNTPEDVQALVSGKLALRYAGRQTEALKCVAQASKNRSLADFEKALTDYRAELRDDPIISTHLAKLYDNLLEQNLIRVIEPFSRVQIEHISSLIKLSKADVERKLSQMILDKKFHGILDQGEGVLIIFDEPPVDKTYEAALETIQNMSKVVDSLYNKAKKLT
UniProt P51665: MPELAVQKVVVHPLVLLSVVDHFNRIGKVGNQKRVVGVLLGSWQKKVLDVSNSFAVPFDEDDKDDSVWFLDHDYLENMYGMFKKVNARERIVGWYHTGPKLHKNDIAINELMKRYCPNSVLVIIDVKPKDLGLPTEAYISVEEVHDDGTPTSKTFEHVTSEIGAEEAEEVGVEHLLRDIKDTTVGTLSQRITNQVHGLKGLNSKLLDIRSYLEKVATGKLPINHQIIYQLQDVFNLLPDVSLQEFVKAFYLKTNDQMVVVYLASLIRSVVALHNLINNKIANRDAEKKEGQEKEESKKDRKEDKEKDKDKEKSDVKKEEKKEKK

Legend:
Test in all cases: log2 fold change, soluble protein after heating vs DMSO (PISA); higher = thermal stabilisation; K562 cells, 10 uM, 30 min; active = over 0.2 and 3.5 SD of the protein, either way, in both replicates (recomputed)
[1] = compound: CN1CCN(CCOc2cc(OC3CCOCC3)c3c(Nc4c(Cl)ccc5c4OCO5)ncnc3c2)CC1 [saracatinib]
Method in brief: (§1)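 Soluble protein was defined as the supernatant after 21,000xg for 90 min. It came from K562 cells at 2×10^6 cells/mL given 10 μM compound for 30 min, heated in aliquots for 3 min across 48°C-58°C, pooled, and extracted in PBS with 0.5% NP-40 at 4°C, and was quantified by TMTpro 16plex LC-MS/MS with equalised channel sums. Thermal stability against control samples, from duplicates, is reported as log2 fold change.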

[2] = compound: CN1CCN(c2nc(C3=C(c4c[nH]c5ccccc45)C(=O)NC3=O)c3ccccc3n2)CC1 [sotrastaurin]
Method in brief: as §1

[3] = compound: CN1CC[C@H](c2c(O)cc(O)c3c(=O)cc(-c4ccccc4Cl)oc23)[C@H](O)C1 [alvocidib]
Method in brief: as §1

[4] = compound: CN1CCc2c(c3ccccc3n2Cc2ccc(C(=O)NO)cc2)C1 [Tubastatin A]
Method in brief: as §1

[5] = compound: CNC(=O)C1=CC=CC=C1NC2=NC(=NC=C2Cl)NC3=C(C=C(C=C3)N4CCOCC4)OC
Method in brief: as §1

[6] = compound: CNC(=O)c1ccc(Nc2ncc(C(F)(F)F)c(NCc3nccnc3N(C)S(C)(=O)=O)n2)cc1 [defactinib]
Method in brief: as §1

[7] = compound: CNCc1ccc(-c2[nH]c3cc(F)cc4c3c2CCNC4=O)cc1 [rucaparib]
Method in brief: as §1

[8] = compound: CNc1nc(-c2ccc3c(N)n[nH]c3c2)cc(N2C[C@@H](C(=O)NC3CCCCC3)CC[C@H]2C)n1
Method in brief: as §1

[9] = compound: COC(=O)N[C@@H](C)CNc1nccc(-c2cn(C(C)C)nc2-c2cc(Cl)cc(NS(C)(=O)=O)c2F)n1 [encorafenib]
Method in brief: as §1

[10] = compound: COC(=O)[C@H](CCSC)NC(=O)C1=C(C=C(C=C1)NC[C@H](CS)N)C2=CC=CC=C2
Method in brief: as §1

Measured: log2 fold change

PRTFDC1 (UniProt Q9NRG1)
inactive: [1] 0.031 | [2] 0.055 | [3] 0.03 | [4] -0.024 | [5] -0.022 | [6] 0.017 | [7] -0.04 | [8] -0.039 | [9] -0.025 | [10] 0.035

PSMB1 (UniProt P20618)
inactive: [1] -0.023 | [2] 0.002 | [3] 0.033 | [4] -0.021 | [5] -0.015 | [6] 0.032 | [7] 0.049 | [8] 0.012 | [9] 0.01 | [10] -0.004

PTPN23 (UniProt Q9H3S7)
inactive: [1] -0.007 | [2] -0.13 | [4] 0.112 | [5] 0.055 | [6] -0.169 | [7] 0.074 | [8] -0.055 | [9] 0.043 | [10] -0.023

PTPA (UniProt Q15257)
inactive: [1] 0.009 | [2] 0.068 | [4] -0.029 | [5] -0.036 | [6] -0.033 | [7] -0.045 | [8] -0.012 | [9] 0.012 | [10] 0.003

PYROXD1 (UniProt Q8WU10)
inactive: [1] -0.004 | [2] -0.169 | [3] 0.046 | [4] 0.032 | [5] -0.004 | [6] -0.253 | [8] -0.007 | [10] -0.007

PSMC2 (UniProt P35998)
inactive: [1] -0.024 | [2] -0.03 | [4] -0.01 | [5] -0.014 | [6] 0.061 | [7] 0.033 | [8] 0.035 | [9] 0.018 | [10] 0.001

PTBP1 (UniProt P26599)
inactive: [1] -0.009 | [2] -0.014 | [3] -0.099 | [4] 0.062 | [5] -0.021 | [6] -0.208 | [7] 0.009 | [8] 0.015 | [9] 0.064 | [10] -0.032

PSMG3 (UniProt Q9BT73)
inactive: [1] -0.068 | [2] 0.042 | [3] -0.037 | [4] 0.004 | [5] 0.006 | [6] -0.067 | [7] 0.056 | [8] -0.115 | [9] 0 | [10] 0.077

PSMB3 (UniProt P49720)
inactive: [1] 0.031 | [2] 0 | [3] 0.066 | [4] -0.116 | [5] 0.106 | [6] 0.073 | [7] 0.001 | [8] 0.001 | [9] 0.029 | [10] 0.022

PTRH2 (UniProt Q9Y3E5)
inactive: [1] -0.008 | [2] 0.027 | [4] -0.052 | [5] 0.148 | [6] -0.009 | [7] -0.002 | [8] -0.051 | [9] 0.017 | [10] 0

PTPRN2 isoform 3 (UniProt Q92932)
inactive: [1] -0.254 | [2] 0.243 | [3] 0.311 | [7] -0.03 | [8] -0.05 | [9] -0.072

PSEN1 (UniProt P49768)
inactive: [1] -0.019 | [2] 0.164 | [3] -0.083 | [4] -0.024 | [6] -0.089 | [7] -0.017 | [8] -0.05 | [9] -0.021 | [10] 0.037

PYGB (UniProt P11216)
inactive: [1] 0.012 | [2] -0.142 | [4] -0.003 | [6] -0.091 | [7] -0.004 | [8] -0.042 | [9] 0.024 | [10] -0.009
active: [5] -0.391

PSMD1 (UniProt Q99460)
inactive: [1] -0.033 | [2] -0.064 | [4] 0.016 | [5] 0 | [6] 0.087 | [7] -0.003 | [8] 0.048 | [9] 0.062 | [10] 0.018

Two successive entries from above, quoted:
PSEN1 (UniProt P49768)
inactive: [1] -0.019 | [2] 0.164 | [3] -0.083 | [4] -0.024 | [6] -0.089 | [7] -0.017 | [8] -0.05 | [9] -0.021 | [10] 0.037

PYGB (UniProt P11216)
inactive: [1] 0.012 | [2] -0.142 | [4] -0.003 | [6] -0.091 | [7] -0.004 | [8] -0.042 | [9] 0.024 | [10] -0.009
active: [5] -0.391

Next part.

PSEN2 (UniProt P49810)
inactive: [1] 0.212 | [2] 0.244 | [5] -0.018 | [8] -0.121

PTS (UniProt Q03393)
inactive: [1] 0.058 | [3] -0.081 | [4] 0.265 | [5] -0.065 | [6] -0.092 | [7] -0.034 | [8] 0.075 | [9] 0.007 | [10] -0.04

PTPMT1 (UniProt Q8WUK0)
inactive: [1] -0.037 | [2] -0.059 | [4] -0.063 | [5] 0.027 | [6] -0.07 | [7] -0.118 | [8] -0.019 | [9] 0.044 | [10] 0.045

PSMD3 (UniProt O43242)
inactive: [1] -0.06 | [2] -0.015 | [4] 0.016 | [5] 0.007 | [6] 0.083 | [7] 0.037 | [8] 0.051 | [9] 0.031 | [10] 0.003

PSMD13 (UniProt Q9UNM6)
inactive: [1] -0.073 | [2] 0 | [4] 0.038 | [5] 0.027 | [6] 0.068 | [7] 0.024 | [8] 0.043 | [9] 0.063 | [10] 0.003

PTGR2 (UniProt Q8N8N7)
inactive: [1] 0.021 | [2] 0.009 | [4] 0.046 | [5] -0.052 | [6] -0.025 | [7] 0.007 | [8] 0.136 | [9] -0.107 | [10] -0.043

PRUNE1 (UniProt Q86TP1)
inactive: [1] -0.071 | [2] -0.045 | [4] 0.017 | [5] 0.007 | [6] -0.05 | [7] 0.027 | [8] 0.033 | [9] 0.006 | [10] 0.005

PTPA (UniProt A6PVN8)
inactive: [1] 0.21 | [2] 0.003 | [4] 0.131 | [5] -0.133 | [6] -0.045 | [7] 0.072 | [8] -0.008 | [9] 0.077 | [10] 0.039

PSMC5 (UniProt P62195)
inactive: [1] -0.041 | [2] -0.004 | [4] -0.013 | [5] -0.028 | [6] 0.066 | [7] 0.025 | [8] 0.065 | [9] 0.02 | [10] 0.009

PSMB5 isoform 3 (UniProt P28074)
inactive: [1] -0.158 | [2] 0.152 | [4] -0.011 | [6] 0.065 | [7] 0.058 | [8] 0.007 | [9] -0.206 | [10] 0.058

PSMC3 (UniProt P17980)
inactive: [1] -0.043 | [2] -0.035 | [4] 0.011 | [5] 0 | [6] 0.06 | [7] 0.033 | [8] 0.003 | [9] 0.026 | [10] 0.004

PTDSS1 (UniProt P48651)
inactive: [1] -0.011 | [2] 0.006 | [4] 0.048 | [5] -0.065 | [6] 0.13 | [7] 0.292 | [8] 0.07 | [9] 0.224 | [10] 0.01

PTMA (UniProt P06454)
inactive: [1] 0.016 | [2] -0.026 | [4] 0.098 | [5] -0.07 | [6] -0.108 | [7] 0.02 | [8] 0.01 | [9] -0.05 | [10] -0.059

PSMC4 (UniProt P43686)
inactive: [1] -0.041 | [2] -0.011 | [4] -0.026 | [5] -0.032 | [6] 0.074 | [7] 0.039 | [8] 0.037 | [9] 0.019 | [10] 0.005

R3HDM1 isoform 2 (UniProt Q15032)
inactive: [1] -0.154 | [2] -0.16 | [4] 0.05 | [5] -0.111 | [6] -0.07 | [7] 0.184 | [8] 0.121 | [9] -0.004 | [10] 0.049

PSMD11 (UniProt O00231)
inactive: [1] -0.065 | [2] -0.051 | [4] 0.077 | [5] 0.013 | [6] 0.059 | [7] 0.039 | [8] 0.041 | [9] 0.042 | [10] -0.05

PSMD7 (UniProt P51665)
inactive: [1] -0.018 | [2] -0.028 | [4] 0.001 | [5] 0.015 | [6] 0.079 | [7] 0.063 | [8] 0.022 | [9] 0.03 | [10] 0.017

PTK2B (UniProt Q14289)
inactive: [1] 0.163 | [2] -0.104 | [4] 0.078 | [5] 0.309 | [6] 0.36 | [8] -0.034 | [10] -0.155
